Construct, isoform or probe ends are uncertain for at least one entry. Protein sequences can lack the tags named with them.
Molecular target: T1, ParA (His6-ParA) (Myxococcus xanthus) (UniProt Q1CVJ3)
T1 sequence (looked up, limits assumed): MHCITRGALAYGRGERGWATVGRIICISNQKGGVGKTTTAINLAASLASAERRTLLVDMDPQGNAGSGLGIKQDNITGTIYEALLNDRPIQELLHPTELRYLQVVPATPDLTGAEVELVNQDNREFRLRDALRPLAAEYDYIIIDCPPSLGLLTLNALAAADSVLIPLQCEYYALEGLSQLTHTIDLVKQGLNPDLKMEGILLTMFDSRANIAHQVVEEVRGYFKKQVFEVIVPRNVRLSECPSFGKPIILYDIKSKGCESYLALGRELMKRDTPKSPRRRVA
Experiment: BLI
Conditions: 1 mM ATP, no ParB1-20 peptide; BLI: 25 mM HEPES/KOH pH 7.6, 100 mM KCl (150 or 500 mM where stated), 10 mM MgSO4, 1 mM DTT, 0.01% Tween 20; temperature not stated; recombinant protein; protein details: His6; label: 5'-biotin-TEG on both strands; probe letters rebuilt from the primers and the genome

Sequence: TCCGCTTGGCGTGAGTTCCTGACGCTTGGTGGGAAGGATGCGCGTGCTGATGCGTGCACCTCAGTGAAGTGGATGGCGCGGCTGCTCATGCGCGGGTTGCTCAGCGCCTGTTCCACGTGGAACGCGGGATGGATTGATGGTGGGCACGCGCGCAGCGCCGGAGAGTTCGCTGACGGCTCCGCGTTCAGGCTCGTGATGCGCTCATGGTTCATGGAGTGGTGAGTGCTCCACCGG (double strand) [234-bp parS fragment, closed on biosensor]
- Kd: 7.8 µM
